In paper PMC5447718:
These are yes or no findings as the source states them, for the method shown. In cells and extracts the contact can be indirect. Some results given as binding are weak or reduced against the parent protein; the word gives no strength.

Amino acid sequences for entries named in this document (tags omitted).
UniProt P16388: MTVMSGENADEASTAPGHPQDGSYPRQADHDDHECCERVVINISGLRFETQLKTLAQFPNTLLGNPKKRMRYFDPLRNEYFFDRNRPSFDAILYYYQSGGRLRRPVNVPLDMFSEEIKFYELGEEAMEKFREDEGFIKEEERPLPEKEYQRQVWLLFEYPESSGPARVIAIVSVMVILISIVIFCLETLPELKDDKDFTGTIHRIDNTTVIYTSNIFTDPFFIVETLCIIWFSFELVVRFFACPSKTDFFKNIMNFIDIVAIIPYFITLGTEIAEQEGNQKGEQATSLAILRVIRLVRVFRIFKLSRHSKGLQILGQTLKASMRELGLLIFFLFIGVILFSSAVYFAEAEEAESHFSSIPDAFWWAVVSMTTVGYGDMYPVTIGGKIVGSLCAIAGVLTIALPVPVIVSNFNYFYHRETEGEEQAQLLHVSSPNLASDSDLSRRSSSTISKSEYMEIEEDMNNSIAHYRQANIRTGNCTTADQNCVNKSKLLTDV
UniProt P63141: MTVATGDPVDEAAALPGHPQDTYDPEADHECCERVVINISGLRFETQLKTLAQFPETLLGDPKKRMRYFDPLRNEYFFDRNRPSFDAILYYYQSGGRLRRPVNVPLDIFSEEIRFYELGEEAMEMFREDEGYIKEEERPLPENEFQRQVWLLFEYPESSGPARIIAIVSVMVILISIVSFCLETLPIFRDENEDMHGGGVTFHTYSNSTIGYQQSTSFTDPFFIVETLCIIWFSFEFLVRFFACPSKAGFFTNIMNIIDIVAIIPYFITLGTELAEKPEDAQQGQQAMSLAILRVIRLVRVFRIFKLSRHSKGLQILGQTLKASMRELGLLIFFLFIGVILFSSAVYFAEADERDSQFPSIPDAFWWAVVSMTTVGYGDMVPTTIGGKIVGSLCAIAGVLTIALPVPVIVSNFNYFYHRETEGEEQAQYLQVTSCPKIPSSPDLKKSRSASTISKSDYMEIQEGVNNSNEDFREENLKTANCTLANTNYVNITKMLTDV

Target: voltage-gated potassium channel subunit Kv1.1 (mouse (endogenous in cortical membranes; the methods say rat cortices)) (UniProt P16388)
Assay: co-IP; rabbit anti-Kv1.1 (4 ug) on Protein A/G-agarose from pre-cleared solubilised cortical membranes (1 mg protein; 20 mM HEPES pH 7.2, 150 mM NaCl, 5 mM EDTA, 1% Triton X-100, 0.5% SDS); blot for Kv1.2; rabbit IgG as control; animals treated with DMSO or rapamycin (more Kv1.2 with rapamycin)

voltage-gated potassium channel subunit Kv1.2 (from UniProt P63141 1-499)
binding: binds
